Reference: PubChem BioAssay AID330 (DTP/NCI, 2004)
The list is a part of this screen's results and no random one: it gathers some chemical classes. Other doses and runs of a compound may be missing. T/C gives the treated animals as a percentage of the vehicle group. Some entries give survivors of the animals treated and no T/C: the source files T/C as zero there, which appears to mark a toxic dose or a test without result, not a measured value. Some doses without a T/C left all or most animals alive at the check, yet need not have been tolerated: the source hardly ever lists a survival T/C far under the control, and the zero likely stands for such cases as well. Counts of survivors are from the toxicity check (mostly the fifth day) where no day follows; animals may have died later. Schedule codes are those of the source, read here as Q, the interval in days (D) or hours (H), X, the number of doses. Some structures stand for samples that the source files as different forms (salt, stereo form or complex); doses refer to the form tested. Some entries hold several experiments; their values stand side by side, smallest first. Additions like (4×) give the number of equal values in this list. For survival time, the PubChem record calls one and a half times the control and up active, and a quarter to a half above the control has no call in these data; cut-offs in other NCI protocols can differ. Some T/C values carry the count of animals alive at the toxicity check (mostly the fifth day); where neither a count nor a note follows, no animal had died by that day.

Tested on: P388 leukemia ip, CD2F1 mice, survival T/C
Experiment: NCI In Vivo Anticancer Drug Screen. Data for tumor model P388 Leukemia (intraperitoneal) in CD2F1 (CDF1) mice
Details: T/C endpoint: median survival time, higher T/C = longer survival
[1] = dose: 50.0 mg/kg/injection, schedule: Q01DX009 (ip), vehicle: saline
[2] = dose: 100.0 mg/kg/injection, schedule: Q01DX009 (ip), vehicle: saline
[3] = dose: 200.0 mg/kg/injection, schedule: Q01DX009 (ip), vehicle: saline
[4] = dose: 50.0 mg/kg/injection, schedule: Q01DX005 (ip), vehicle: saline with Tween-80
[5] = dose: 100.0 mg/kg/injection, schedule: Q01DX005 (ip), vehicle: saline with Tween-80
[6] = dose: 200.0 mg/kg/injection, schedule: Q01DX005 (ip), vehicle: saline with Tween-80
[7] = dose: 200.0 mg/kg/injection, schedule: Q04DX003 (ip), vehicle: saline with Tween-80
[8] = dose: 50.0 mg/kg/injection, schedule: Q01DX009 (ip), vehicle: Klucel (hydroxypropylcellulose) (HPC)

In the case of `CC(=O)NC1C(O)OC(CS[As](C)C)C(O)C1O` (configuration not stated), the T/C (dose: 25.0 mg/kg/injection, schedule: Q01DX008 (ip), vehicle: saline) is reported as 111 % of control, the T/C (dose: 25.0 mg/kg/injection, schedule: Q01DX009 (ip), vehicle: saline) is reported as 121 % of control and the T/C (dose: 50.0 mg/kg/injection, schedule: Q01DX008 (ip), vehicle: saline) is reported as 110 % of control. The T/C [1] was 114 [5 of 6 alive] and 137 % of control, the T/C (dose: 100.0 mg/kg/injection, schedule: Q01DX008 (ip), vehicle: saline) was 119 % of control and the T/C [2] was 110 and 125 % of control. The T/C [3] was 114 % of control.

In the case of `CC1=C(C)OP(=O)(n2ccnc2)O1`, the T/C [1] is reported as 105 % of control, the T/C [2] is reported as 107 % of control and the T/C [3] is reported as 107 % of control.

In the case of `O=[N+]([O-])C1C(O)C(O)C([N+](=O)[O-])C(O)C1O` (configuration not stated), the T/C (dose: 3.12 mg/kg/injection, schedule: Q01DX005 (ip), vehicle: saline with Tween-80) is reported as 96 and 97 % of control, the T/C (dose: 6.25 mg/kg/injection, schedule: Q01DX005 (ip), vehicle: saline with Tween-80) is reported as 97 and 98 % of control and the T/C (dose: 12.5 mg/kg/injection, schedule: Q01DX005 (ip), vehicle: saline with Tween-80) is reported as 98 and 99 % of control. For the same compound, the T/C (dose: 25.0 mg/kg/injection, schedule: Q01DX005 (ip), vehicle: saline with Tween-80) was 97 and 99 % of control, the T/C (dose: 25.0 mg/kg/injection, schedule: Q04DX003 (ip), vehicle: Klucel (hydroxypropylcellulose) (HPC)) was 100 % of control [5 of 6 alive] and the T/C [4] was 101 % of control [4 of 5 alive]. For the same compound, the T/C (dose: 50.0 mg/kg/injection, schedule: Q04DX003 (ip), vehicle: Klucel (hydroxypropylcellulose) (HPC)) was 94 % of control, the T/C [5] was 114 % of control and the T/C (dose: 100.0 mg/kg/injection, schedule: Q04DX003 (ip), vehicle: Klucel (hydroxypropylcellulose) (HPC)) was 88 and 97 % of control [4 of 6 alive]. For the same compound, the survivor count [6] was 5 of 5, the survivor count (dose: 200.0 mg/kg/injection, schedule: Q04DX003 (ip), vehicle: Klucel (hydroxypropylcellulose) (HPC)) was 5 of 6 and the survivor count (dose: 400.0 mg/kg/injection, schedule: Q04DX003 (ip), vehicle: Klucel (hydroxypropylcellulose) (HPC)) was 1 of 6.

`NCCCl` was tested, and the T/C (dose: 50.0 mg/kg/injection, schedule: Q01DX001 (ip), vehicle: saline) was 97 % of control, the T/C (dose: 100.0 mg/kg/injection, schedule: Q01DX001 (ip), vehicle: saline) was 108 % of control and the T/C (dose: 200.0 mg/kg/injection, schedule: Q01DX001 (ip), vehicle: saline) was 100 % of control. For the same compound, the T/C (dose: 400.0 mg/kg/injection, schedule: Q01DX001 (ip), vehicle: saline) was 100 % of control.

`COc1cc2c(c3oc4cccc(O)c4c(=O)c13)[C@@H]1C=CO[C@@H]1O2` was tested, and the T/C (dose: 0.5 mg/kg/injection, schedule: Q01DX009 (ip), vehicle: saline) was 104 % of control, the T/C (dose: 1.0 mg/kg/injection, schedule: Q01DX009 (ip), vehicle: saline) was 118 % of control and the T/C (dose: 2.0 mg/kg/injection, schedule: Q01DX009 (ip), vehicle: saline) was 118 % of control [5 of 6 alive]. The T/C (dose: 4.0 mg/kg/injection, schedule: Q01DX009 (ip), vehicle: saline) was 122 % of control, the T/C (dose: 7.5 mg/kg/injection, schedule: Q01DX005 (ip), vehicle: saline with Tween-80) was 131 % of control and the T/C (dose: 7.5 mg/kg/injection, schedule: Q01DX005 (iv), vehicle: saline with Tween-80) was 104 % of control. The T/C (dose: 8.0 mg/kg/injection, schedule: Q01DX009 (ip), vehicle: saline) was 127 % of control, the T/C (dose: 15.0 mg/kg/injection, schedule: Q01DX005 (ip), vehicle: saline with Tween-80) was 133 % of control and the T/C (dose: 15.0 mg/kg/injection, schedule: Q01DX005 (iv), vehicle: saline with Tween-80) was 100 % of control. For the same compound, the T/C (dose: 16.0 mg/kg/injection, schedule: Q01DX009 (ip), vehicle: saline) was 159 % of control, the T/C (dose: 30.0 mg/kg/injection, schedule: Q01DX005 (ip), vehicle: saline with Tween-80) was 169 % of control and the T/C (dose: 30.0 mg/kg/injection, schedule: Q01DX005 (iv), vehicle: saline with Tween-80) was 101 % of control. For the same compound, the T/C (dose: 32.0 mg/kg/injection, schedule: Q01DX009 (ip), vehicle: saline) was 172 % of control, the T/C (dose: 50.0 mg/kg/injection, schedule: Q04DX003 (ip), vehicle: saline with Tween-80) was 158 % of control and the T/C (dose: 60.0 mg/kg/injection, schedule: Q01DX005 (ip), vehicle: saline with Tween-80) was 196 % of control. The T/C (dose: 60.0 mg/kg/injection, schedule: Q01DX005 (iv), vehicle: saline with Tween-80) was 115 % of control, the T/C (dose: 100.0 mg/kg/injection, schedule: Q04DX003 (ip), vehicle: saline with Tween-80) was 163 and 192 % of control and the survivor count (dose: 120.0 mg/kg/injection, schedule: Q01DX005 (ip), vehicle: saline with Tween-80) was 6 of 6. The T/C (dose: 120.0 mg/kg/injection, schedule: Q01DX005 (iv), vehicle: saline with Tween-80) was 100 % of control [4 of 6 alive], the T/C [7] was 143 % of control and the survivor count [7] was 4 of 6. The survivor count (dose: 400.0 mg/kg/injection, schedule: Q04DX003 (ip), vehicle: saline with Tween-80) was 1 of 6.

With `O=NN(CC(F)([N+](=O)[O-])[N+](=O)[O-])CC(F)([N+](=O)[O-])[N+](=O)[O-]` the T/C [2] was 116 % of control, the T/C [3] was 121 % of control and the survivor count (dose: 400.0 mg/kg/injection, schedule: Q01DX009 (ip), vehicle: saline) was 2 of 6.

With `C[Si](C)(C)CCOC(=O)N(CCCl)CCCl` the T/C (dose: 100.0 mg/kg/injection, schedule: Q04DX002 (ip), vehicle: saline with Tween-80) was 101 and 102 % of control, the T/C (dose: 200.0 mg/kg/injection, schedule: Q04DX002 (ip), vehicle: saline with Tween-80) was 110 and 114 % of control and the T/C (dose: 400.0 mg/kg/injection, schedule: Q04DX002 (ip), vehicle: saline with Tween-80) was 124 and 132 % of control. For the same compound, the T/C (dose: 600.0 mg/kg/injection, schedule: Q04DX002 (ip), vehicle: saline with Tween-80) was 133 % of control [5 of 6 alive].

With `O=[N+]([O-])c1cc([N+](=O)[O-])c(-c2ncnc(-c3c([N+](=O)[O-])cc([N+](=O)[O-])cc3[N+](=O)[O-])c2[N+](=O)[O-])c([N+](=O)[O-])c1` the T/C (dose: 50.0 mg/kg/injection, schedule: Q01DX009 (ip), vehicle: saline with Tween-80) was 100 % of control, the T/C (dose: 100.0 mg/kg/injection, schedule: Q01DX009 (ip), vehicle: saline with Tween-80) was 98 % of control and the T/C (dose: 200.0 mg/kg/injection, schedule: Q01DX009 (ip), vehicle: saline with Tween-80) was 100 % of control.

For `O=C1CN(CCCl)CC(=O)N2Cc3ccccc3CN12`, the T/C [4] was 99 % of control, the T/C [5] was 111 % of control and the T/C [6] was 111 % of control [4 of 5 alive].

In the case of `C[As](C)SC(C)(C)C(N)C(=O)O` (configuration not stated), the T/C (dose: 12.5 mg/kg/injection, schedule: Q01DX009 (ip), vehicle: Klucel (hydroxypropylcellulose) (HPC)) is reported as 104, 107, 113, 117 % of control, the T/C (dose: 25.0 mg/kg/injection, schedule: Q01DX009 (ip), vehicle: Klucel (hydroxypropylcellulose) (HPC)) is reported as 104, 108, 117, 122 % of control and the T/C [8] is reported as 110 and 128 % of control. The survivor count [8] was 3 of 6, 4 of 6 (2×), 6 of 6, the survivor count (dose: 100.0 mg/kg/injection, schedule: Q01DX009 (ip), vehicle: Klucel (hydroxypropylcellulose) (HPC)) was 0 of 6 (2×) and 1 of 6 and the survivor count (dose: 200.0 mg/kg/injection, schedule: Q01DX009 (ip), vehicle: Klucel (hydroxypropylcellulose) (HPC)) was 0 of 6 (2×).
